According to US6677501B2, “P2X7 receptor-deficient mice and uses thereof” (Pfizer, Inc., priority 2000, dated 2004):
At least one structure is not confirmed: it was looked up by name or label, or the drawing left a doubt.

Tested on: IL-6
Test: ATP-induced IL-6 release in LPS-primed mice (peritoneal lavage ELISA)
Format: in vivo, mouse
Conditions: LPS-primed P2×7R-/- mice, ip ATP, 120 min post challenge
Experimental: ATP-Induced IL-1β Posttranslational Processing In Vivo Groups of mice were injected intraperitoneally (ip) with 1 μg of LPS. Two hours after this LPS injection, mice were injected ip with either 30 mM ATP (adjusted to pH 7) or PBS. Mice were sacrificed 30 minutes or 120 minutes after the ATP or PBS injection and peritoneal cavities were lavaged, each with 3 ml of RPMI (5% FCS). Samples of peritoneal lavages were spun down, supernatants were collected and tested for the presence of IL-1β and IL-6 using ELISAs (Amersham Life Sciences, Arlington Heights, Va. and Endogen, Woburn, Mass., respectively).
As noted earlier, IL-1 signaling often leads to the production of other cytokines such as IL-6 (Allen et al. (2000) J. Exp. Med. 191:859-869). […] Two hours later an injection of ATP (or PBS) was administered to promote IL-1 posttranslational processing and the mice were incubated for an additional 4 hours. Peritoneal lavages were collected at several times during the course of the experiment and analyzed for IL-6 by ELISA. […] Mice that received an initial priming injection of LPS followed by PBS yielded levels of IL-6 at 1 and 2 hours (4 to 5 ng/ml) that were elevated above those recovered from mice injected with the combination of phosphate buffered saline and ATP (FIG. 8). By 4 hours, however, IL-6 levels recovered from the LPS-PBS treated animals returned to baseline (FIG. 9).

Nc1ncnc2c1ncn2[C@@H]1O[C@H](COP(=O)(O)OP(=O)(O)OP(=O)(O)O)[C@@H](O)[C@H]1O [ATP]
IL-6 (ng/ml), ATP Challenge, P2×7R-/-: 5.7 = 1.2 ng/ml
